# Reference: the supplement of paper PMC10849652
# The chains behind the UniProt entries cited, without tags or fusion partners. Where a name states a change or a piece, a line headed by the entry shows the natural chain unless it says otherwise.
# UniProt P60602: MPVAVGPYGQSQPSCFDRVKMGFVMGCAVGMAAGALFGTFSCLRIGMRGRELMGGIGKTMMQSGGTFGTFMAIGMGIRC
# UniProt Q9NQG5: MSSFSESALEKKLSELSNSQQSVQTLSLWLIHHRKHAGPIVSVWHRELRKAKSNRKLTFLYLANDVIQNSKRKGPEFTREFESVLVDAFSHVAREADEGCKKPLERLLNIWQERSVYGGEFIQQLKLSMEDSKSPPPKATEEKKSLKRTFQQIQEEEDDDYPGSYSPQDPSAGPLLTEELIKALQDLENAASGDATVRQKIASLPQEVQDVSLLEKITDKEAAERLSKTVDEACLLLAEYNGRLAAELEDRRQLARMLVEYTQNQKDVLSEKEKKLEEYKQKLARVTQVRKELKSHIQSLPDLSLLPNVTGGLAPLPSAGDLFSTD
# UniProt Q9GZN7, whole entry, looked up: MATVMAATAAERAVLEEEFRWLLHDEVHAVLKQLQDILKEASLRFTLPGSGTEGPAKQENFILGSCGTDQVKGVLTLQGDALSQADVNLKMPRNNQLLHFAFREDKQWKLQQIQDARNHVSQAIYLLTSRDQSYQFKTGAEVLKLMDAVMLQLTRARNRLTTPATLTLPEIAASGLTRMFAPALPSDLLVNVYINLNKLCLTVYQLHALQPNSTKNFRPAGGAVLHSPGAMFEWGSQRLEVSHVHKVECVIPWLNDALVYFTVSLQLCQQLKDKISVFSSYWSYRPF
# UniProt Q9NYV6: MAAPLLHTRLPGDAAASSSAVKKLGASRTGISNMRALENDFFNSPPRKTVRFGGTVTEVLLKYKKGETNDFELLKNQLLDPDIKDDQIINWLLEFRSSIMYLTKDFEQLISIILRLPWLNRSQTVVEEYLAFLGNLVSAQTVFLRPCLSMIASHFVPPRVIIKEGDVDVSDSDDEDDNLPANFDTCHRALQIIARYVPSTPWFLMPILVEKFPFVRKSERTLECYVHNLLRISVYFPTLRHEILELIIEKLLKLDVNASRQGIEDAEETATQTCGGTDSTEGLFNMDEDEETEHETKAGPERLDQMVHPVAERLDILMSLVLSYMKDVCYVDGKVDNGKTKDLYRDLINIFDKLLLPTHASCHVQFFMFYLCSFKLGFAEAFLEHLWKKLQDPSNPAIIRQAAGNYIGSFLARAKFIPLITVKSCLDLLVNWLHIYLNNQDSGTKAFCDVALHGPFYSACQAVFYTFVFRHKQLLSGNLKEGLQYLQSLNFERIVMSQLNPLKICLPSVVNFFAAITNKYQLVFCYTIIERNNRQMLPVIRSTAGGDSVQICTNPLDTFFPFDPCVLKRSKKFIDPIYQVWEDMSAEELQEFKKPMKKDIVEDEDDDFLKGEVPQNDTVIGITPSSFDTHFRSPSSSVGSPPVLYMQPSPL
# UniProt O75582, whole entry, looked up: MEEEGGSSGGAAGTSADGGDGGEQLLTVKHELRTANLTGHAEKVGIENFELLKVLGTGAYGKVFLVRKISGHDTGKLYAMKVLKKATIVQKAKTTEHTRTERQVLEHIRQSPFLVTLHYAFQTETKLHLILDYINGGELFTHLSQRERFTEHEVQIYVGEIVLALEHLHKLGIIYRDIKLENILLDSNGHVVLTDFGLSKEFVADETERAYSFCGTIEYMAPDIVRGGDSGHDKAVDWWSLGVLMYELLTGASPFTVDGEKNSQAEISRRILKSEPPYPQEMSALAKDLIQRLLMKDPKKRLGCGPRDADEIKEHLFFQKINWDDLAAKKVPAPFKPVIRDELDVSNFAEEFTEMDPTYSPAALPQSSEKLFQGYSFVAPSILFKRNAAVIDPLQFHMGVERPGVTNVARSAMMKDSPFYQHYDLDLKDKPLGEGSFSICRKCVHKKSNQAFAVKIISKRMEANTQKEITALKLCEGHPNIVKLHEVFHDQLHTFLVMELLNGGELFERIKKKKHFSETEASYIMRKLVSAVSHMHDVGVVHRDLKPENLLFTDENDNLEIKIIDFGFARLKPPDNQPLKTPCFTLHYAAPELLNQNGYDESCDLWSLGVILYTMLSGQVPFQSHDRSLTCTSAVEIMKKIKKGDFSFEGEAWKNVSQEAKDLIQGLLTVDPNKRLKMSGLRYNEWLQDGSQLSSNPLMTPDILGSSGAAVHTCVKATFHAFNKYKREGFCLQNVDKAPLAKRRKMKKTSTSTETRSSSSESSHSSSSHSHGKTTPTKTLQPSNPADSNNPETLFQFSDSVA
# UniProt Q15287: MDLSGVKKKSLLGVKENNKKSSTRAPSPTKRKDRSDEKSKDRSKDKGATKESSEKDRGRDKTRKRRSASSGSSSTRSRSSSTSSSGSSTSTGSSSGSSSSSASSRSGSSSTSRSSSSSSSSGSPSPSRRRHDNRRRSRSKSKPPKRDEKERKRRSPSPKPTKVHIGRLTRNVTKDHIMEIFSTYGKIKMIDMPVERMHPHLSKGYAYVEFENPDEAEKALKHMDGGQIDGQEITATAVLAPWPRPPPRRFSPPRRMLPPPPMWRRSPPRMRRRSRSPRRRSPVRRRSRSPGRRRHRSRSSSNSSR
# UniProt Q5VZM2, whole entry, looked up: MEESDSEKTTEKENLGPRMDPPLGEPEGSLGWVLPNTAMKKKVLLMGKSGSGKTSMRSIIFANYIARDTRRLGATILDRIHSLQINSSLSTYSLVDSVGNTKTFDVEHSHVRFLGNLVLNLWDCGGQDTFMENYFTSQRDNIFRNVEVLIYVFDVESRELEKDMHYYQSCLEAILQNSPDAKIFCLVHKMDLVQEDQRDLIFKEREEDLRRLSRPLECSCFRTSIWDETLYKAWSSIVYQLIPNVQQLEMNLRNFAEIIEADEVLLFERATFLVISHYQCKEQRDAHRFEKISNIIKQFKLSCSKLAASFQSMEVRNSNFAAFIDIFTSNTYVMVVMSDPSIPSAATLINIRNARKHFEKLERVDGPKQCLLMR
# UniProt Q86UA6: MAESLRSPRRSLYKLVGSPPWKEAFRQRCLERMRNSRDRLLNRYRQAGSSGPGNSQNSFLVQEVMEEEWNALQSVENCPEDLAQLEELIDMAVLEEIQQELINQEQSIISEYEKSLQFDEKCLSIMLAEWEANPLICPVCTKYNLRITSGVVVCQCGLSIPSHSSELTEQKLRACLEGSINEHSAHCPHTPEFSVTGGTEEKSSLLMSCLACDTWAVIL
# UniProt P51812, whole entry, looked up: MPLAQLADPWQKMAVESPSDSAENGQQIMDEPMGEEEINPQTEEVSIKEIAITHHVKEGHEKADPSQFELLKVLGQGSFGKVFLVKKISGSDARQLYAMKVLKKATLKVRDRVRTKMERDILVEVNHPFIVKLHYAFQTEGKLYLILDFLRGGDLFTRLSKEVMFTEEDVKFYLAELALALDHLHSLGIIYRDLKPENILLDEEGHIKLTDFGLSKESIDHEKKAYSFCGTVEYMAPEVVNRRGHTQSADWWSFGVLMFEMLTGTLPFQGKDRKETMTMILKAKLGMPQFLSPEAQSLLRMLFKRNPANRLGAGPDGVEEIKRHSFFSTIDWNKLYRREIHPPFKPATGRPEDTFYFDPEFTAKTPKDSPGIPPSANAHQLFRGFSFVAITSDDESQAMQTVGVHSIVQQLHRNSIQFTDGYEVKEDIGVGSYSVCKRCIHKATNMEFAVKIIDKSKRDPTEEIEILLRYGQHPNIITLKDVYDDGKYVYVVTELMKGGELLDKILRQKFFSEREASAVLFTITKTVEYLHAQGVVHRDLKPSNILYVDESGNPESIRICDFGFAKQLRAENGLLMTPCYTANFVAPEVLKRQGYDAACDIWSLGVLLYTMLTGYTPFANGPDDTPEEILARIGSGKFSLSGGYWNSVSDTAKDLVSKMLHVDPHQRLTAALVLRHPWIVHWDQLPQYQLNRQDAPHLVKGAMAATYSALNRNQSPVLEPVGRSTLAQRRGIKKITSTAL
# UniProt P78317: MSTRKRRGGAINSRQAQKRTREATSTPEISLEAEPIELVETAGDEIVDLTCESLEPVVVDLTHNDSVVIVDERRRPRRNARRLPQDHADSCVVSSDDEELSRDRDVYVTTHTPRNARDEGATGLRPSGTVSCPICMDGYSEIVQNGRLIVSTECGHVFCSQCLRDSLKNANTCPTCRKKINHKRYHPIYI
# UniProt Q6P087: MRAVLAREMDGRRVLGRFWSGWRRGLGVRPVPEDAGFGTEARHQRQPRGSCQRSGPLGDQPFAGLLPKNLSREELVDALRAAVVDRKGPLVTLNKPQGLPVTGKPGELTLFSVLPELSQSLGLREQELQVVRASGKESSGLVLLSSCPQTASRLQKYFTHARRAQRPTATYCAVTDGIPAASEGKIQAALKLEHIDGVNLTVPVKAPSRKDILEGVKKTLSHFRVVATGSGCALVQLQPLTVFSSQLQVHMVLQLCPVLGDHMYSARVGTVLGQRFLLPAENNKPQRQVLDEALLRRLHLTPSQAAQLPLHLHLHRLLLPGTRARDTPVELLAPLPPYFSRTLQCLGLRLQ
# UniProt Q96CM3: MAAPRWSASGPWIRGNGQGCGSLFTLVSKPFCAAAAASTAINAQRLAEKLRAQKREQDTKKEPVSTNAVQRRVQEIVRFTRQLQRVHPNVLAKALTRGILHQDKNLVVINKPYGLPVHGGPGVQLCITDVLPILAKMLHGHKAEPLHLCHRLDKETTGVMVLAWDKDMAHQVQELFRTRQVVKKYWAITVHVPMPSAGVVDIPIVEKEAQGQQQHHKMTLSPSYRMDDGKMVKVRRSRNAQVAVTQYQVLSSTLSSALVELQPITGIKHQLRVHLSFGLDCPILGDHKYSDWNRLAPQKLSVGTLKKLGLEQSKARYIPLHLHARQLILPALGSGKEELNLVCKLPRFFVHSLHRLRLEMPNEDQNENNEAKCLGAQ
# UniProt Q5M7Z0: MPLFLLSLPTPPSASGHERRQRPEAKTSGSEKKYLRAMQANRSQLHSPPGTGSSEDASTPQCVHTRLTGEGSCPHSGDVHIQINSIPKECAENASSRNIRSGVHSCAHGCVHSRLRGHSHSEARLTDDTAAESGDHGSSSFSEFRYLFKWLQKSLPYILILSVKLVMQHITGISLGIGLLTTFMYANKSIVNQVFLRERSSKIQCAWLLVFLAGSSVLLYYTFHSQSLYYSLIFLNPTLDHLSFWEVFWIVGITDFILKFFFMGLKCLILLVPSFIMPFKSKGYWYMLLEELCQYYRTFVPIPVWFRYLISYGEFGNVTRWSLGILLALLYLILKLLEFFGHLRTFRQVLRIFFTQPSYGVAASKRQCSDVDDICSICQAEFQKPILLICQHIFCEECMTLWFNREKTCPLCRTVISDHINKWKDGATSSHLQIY
# UniProt Q5VT52: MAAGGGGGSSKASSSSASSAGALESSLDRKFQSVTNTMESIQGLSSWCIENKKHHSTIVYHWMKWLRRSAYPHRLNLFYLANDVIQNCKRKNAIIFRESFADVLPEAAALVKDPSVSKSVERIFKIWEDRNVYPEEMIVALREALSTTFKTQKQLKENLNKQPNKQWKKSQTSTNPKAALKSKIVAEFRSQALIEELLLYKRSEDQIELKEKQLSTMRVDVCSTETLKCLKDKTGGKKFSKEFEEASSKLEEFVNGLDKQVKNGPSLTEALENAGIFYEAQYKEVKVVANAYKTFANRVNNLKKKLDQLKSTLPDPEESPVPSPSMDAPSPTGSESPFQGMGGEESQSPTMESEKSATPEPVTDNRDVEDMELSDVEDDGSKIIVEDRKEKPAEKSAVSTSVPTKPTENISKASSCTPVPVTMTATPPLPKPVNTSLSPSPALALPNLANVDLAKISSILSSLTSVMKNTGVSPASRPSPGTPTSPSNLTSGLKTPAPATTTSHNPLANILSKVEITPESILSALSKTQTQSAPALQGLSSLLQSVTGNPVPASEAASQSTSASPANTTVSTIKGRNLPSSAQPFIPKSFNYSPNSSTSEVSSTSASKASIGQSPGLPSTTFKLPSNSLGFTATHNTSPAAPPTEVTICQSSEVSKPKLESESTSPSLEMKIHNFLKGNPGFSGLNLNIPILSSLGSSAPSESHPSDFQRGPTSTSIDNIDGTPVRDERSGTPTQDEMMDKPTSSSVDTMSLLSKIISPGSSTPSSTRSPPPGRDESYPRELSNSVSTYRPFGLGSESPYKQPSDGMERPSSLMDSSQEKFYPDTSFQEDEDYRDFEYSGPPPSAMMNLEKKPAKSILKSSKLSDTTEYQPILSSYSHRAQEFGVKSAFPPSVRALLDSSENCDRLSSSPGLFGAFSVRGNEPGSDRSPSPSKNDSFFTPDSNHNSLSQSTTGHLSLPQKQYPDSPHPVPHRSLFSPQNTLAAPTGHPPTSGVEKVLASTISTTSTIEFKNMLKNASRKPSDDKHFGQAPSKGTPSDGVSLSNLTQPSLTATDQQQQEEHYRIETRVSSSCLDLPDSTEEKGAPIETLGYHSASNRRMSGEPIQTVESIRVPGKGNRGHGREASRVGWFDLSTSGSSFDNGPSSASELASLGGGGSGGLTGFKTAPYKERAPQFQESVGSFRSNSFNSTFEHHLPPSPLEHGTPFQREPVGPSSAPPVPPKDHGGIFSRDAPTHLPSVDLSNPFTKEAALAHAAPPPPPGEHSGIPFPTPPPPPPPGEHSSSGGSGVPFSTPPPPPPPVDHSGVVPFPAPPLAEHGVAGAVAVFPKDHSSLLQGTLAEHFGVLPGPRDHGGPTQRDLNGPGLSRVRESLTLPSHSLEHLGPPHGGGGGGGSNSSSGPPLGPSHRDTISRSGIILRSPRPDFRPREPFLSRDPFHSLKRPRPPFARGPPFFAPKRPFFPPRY
# Some of the results follow.
# Compound: CC[C@@H]1C(=O)N(C)c2cnc(Nc3ccc(C(=O)NC4CCN(C)CC4)cc3OC)nc2N1C1CCCC1
# Assay: log2 fold change, soluble protein after heating vs DMSO (PISA); higher = thermal stabilisation; K562 cells, 10 uM, 30 min; active = over 0.2 and 3.5 SD of the protein, either way, in both replicates (recomputed)
# How it was run: (§1)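 Soluble protein was defined as the supernatant after 21,000xg for 90 min. It came from K562 cells at 2×10^6 cells/mL given 10 μM compound for 30 min, heated in aliquots for 3 min across 48°C-58°C, pooled, and extracted in PBS with 0.5% NP-40 at 4°C, and was quantified by TMTpro 16plex LC-MS/MS with equalised channel sums. Thermal stability against control samples, from duplicates, is reported as log2 fold change.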
row,Target,log2 fold change
1,RPL7L1 (UniProt Q6DKI1),inactive: 0.223
2,RPS3 (UniProt E9PJN9),inactive: 0.098
3,ROMO1 (UniProt P60602),inactive: 0.033
4,RPRD1B (UniProt Q9NQG5),inactive: -0.057
5,RPS25 (UniProt P62851),inactive: 0.063
6,RPS5 (UniProt P46782),inactive: 0.103
7,"RPS7, A0A2R8Y623",inactive: 0.503
8,ROS1 (UniProt P08922),inactive: 0.152
9,RPS3A (UniProt P61247),inactive: 0.133
10,ROGDI (UniProt Q9GZN7),inactive: 0.001
11,RPL22L1 (UniProt Q6P5R6),inactive: 0.032
12,RRN3 (UniProt Q9NYV6),inactive: 0.084
13,RPS6KA5 (UniProt O75582),inactive: 0.024
14,RREB1 isoform 2 (UniProt Q92766),inactive: 0.051
15,RPS20 isoform 2 (UniProt P60866),inactive: 0.114
16,RPS14 (UniProt P62263),inactive: 0.043
17,RNPS1 (UniProt Q15287),inactive: 0.062
18,RPL37 (UniProt P61927),inactive: 0.154
19,RRAGB (UniProt Q5VZM2),inactive: 0
20,ROCK2 (UniProt O75116),inactive: -0.033

# Compound: CC[C@@H]1C(=O)N(C)c2cnc(Nc3ccc(C(=O)N[C@H]4CC[C@H](N5CCN(CC6CC6)CC5)CC4)cc3OC)nc2N1C(C)C [volasertib]
# Assay: as above
# How it was run: as §1
row,Target,log2 fold change
1,RPAIN isoform 8 (UniProt Q86UA6),active: -0.718
2,ROMO1 (UniProt P60602),inactive: 0.01
3,RPS6KA3 (UniProt P51812),inactive: -0.174
4,RPRD1B (UniProt Q9NQG5),active: -0.245
5,RPS25 (UniProt P62851),inactive: 0.338
6,RPS5 (UniProt P46782),inactive: 0.337
7,RNF4 (UniProt P78317),inactive: -0.059
8,RPS19 (UniProt M0R2L9),inactive: 0.492
9,RPUSD3 (UniProt Q6P087),inactive: -0.021
10,ROS1 (UniProt P08922),inactive: 0.127
11,RPS3A (UniProt P61247),inactive: 0.339
12,RRN3 (UniProt Q9NYV6),inactive: 0.12
13,RPUSD4 (UniProt Q96CM3),inactive: 0.365
14,RPS6KA5 (UniProt O75582),inactive: -0.529
15,RREB1 isoform 2 (UniProt Q92766),inactive: -0.077
16,RPS20 isoform 2 (UniProt P60866),inactive: 0.31
17,RPS14 (UniProt P62263),inactive: 0.362
18,RNPS1 (UniProt Q15287),inactive: -0.155
19,RPL37 (UniProt P61927),inactive: 0.36
20,RNFT1 (UniProt Q5M7Z0),inactive: 0.108
21,RPRD2 (UniProt Q5VT52),inactive: -0.333
22,RRAGB (UniProt Q5VZM2),inactive: 0.011
23,ROCK2 (UniProt O75116),inactive: -0.139
